Drawing on publication doi:10.1101/2025.10.24.684325, this text covers binding for two molecules.

Sequences of proteins named here, by UniProt entry; tags and fusion partners are left off.
UniProt P08752: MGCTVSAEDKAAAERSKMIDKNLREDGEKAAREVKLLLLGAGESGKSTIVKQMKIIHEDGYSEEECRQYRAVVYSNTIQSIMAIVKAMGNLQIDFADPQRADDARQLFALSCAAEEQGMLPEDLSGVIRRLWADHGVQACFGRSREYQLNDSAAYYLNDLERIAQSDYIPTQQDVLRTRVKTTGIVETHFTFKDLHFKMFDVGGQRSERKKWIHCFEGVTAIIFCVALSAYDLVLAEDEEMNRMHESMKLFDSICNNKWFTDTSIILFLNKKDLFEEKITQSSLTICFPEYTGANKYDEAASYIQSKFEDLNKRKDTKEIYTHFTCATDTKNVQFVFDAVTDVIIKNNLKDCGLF

No constants are given. Whether binding was seen depends on the method and setting. Binding seen in cells or lysates may run through a third protein. A yes stands for co-enrichment or nearness to the bait. Other partners may have been found. Sequences can lack the tags named with a protein.

For this assay, the target named is T1, Flag-TMEM100 (transmembrane protein 100) (UniProt Q9CQG9).
T1 sequence: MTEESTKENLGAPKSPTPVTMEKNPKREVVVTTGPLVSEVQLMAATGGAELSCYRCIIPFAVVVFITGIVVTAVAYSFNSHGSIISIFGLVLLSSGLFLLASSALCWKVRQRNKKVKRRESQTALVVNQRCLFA
The assay can be described thus: affinity purification with mass spectrometry.

As to GNAI2 (from UniProt P08752 1-355), the binding result is listed as “binds”.

B1: PRDX1 (protein, UniProt P35700 1-199)
chain: MSSGNAKIGYPAPNFKATAVMPDGQFKDISLSEYKGKYVVFFFYPLDFTFVCPTEIIAFSDRADEFKKLNCQVIGASVDSHFCHLAWINTPKKQGGLGPMNIPLISDPKRTIAQDYGVLKADEGISFRGLFIIDDKGILRQITINDLPVGRSVDEIIRLVQAFQFTDKHGEVCPAGWKPGSDTIKPDVNKSKEYFSKQK
Take B1: the binding entry is given as “binds”.
